Data as given in the supplement of paper PMC12764529.
± gives the half width of the 95% confidence interval. For many entries, trypsin and chymotrypsin gave values far apart.

Key:
[1] = folding stability dG unfold (combined trypsin and chymotrypsin); higher = more stable
In short: (§1)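 Designed mini-proteins with no cysteine and under 80 residues were kept only if AlphaFold2 dimer inter-PAE was above 15. In a PA-tagged cDNA display construct, they were digested with trypsin and chymotrypsin and then sequenced. K50 was inferred by Bayesian fitting of counts, and unfolding free energy was derived per protease or combined against a sequence-predicted unfolded-state K50 and a shared folded-state K50.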

[2] = folding stability dG unfold from chymotrypsin proteolysis; higher = more stable
In short: as §1

[3] = folding stability dG unfold from trypsin proteolysis; higher = more stable
Procedure: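 Folding stability of de novo designed mini-proteins (<80 aa, no Cys; designed by TrROS, TrMRF, ProteinMPNN and the joint model) was measured by cDNA display proteolysis with trypsin and chymotrypsin. Each protease was used at 11 concentrations in a threefold dilution series plus a no-protease condition. K50 was inferred by Bayesian fitting of sequencing counts, and dG unfold was derived against a sequence-predicted unfolded-state K50 (Tsuboyama et al. method). Sequences shown include variable-length N-terminal GS-type padding (SAGGSAGG...) inside a display construct carrying a PA tag. Rows were kept only if the AF2 dimer inter-PAE was >15, to exclude likely homo-oligomers.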

For “SAMTIEIVVESKEEAEEAIRKLAEELGLEVEEIKVEVVEKKVTVTKKDGKKIEKKVLVVKVEIKLKPKESAG [r14_773_TrROS_Hall]”, the “folding stability dG unfold” value [1] was 2.83 ± 0.5 kcal/mol, the “folding stability dG unfold” value [2] was 3.81 ± 0.82 kcal/mol and the “folding stability dG unfold” value [3] was 0.34 ± 0.31 kcal/mol.
For “SMIEIEVKNEDGETYRIRITFENGEKKEIEFKGIKSLEEAKKAIEELLKLKKEGKKVKIVKIEIEKVDKPSA [r9_1135_TrROS_Hall]”, the “folding stability dG unfold” value [1] was 4.93 ± 0.19 kcal/mol, the “folding stability dG unfold” value [2] was 5.22 ± 0.12 kcal/mol and the “folding stability dG unfold” value [3] was 2.45 ± 0.11 kcal/mol.
With “SAIIKIKTKGKEEIKILLKEIAKKLGFPELTPEEALKALKKVNIKILSIKKDPENPEIYYVEIEIKPPESAG [r14_678_TrMRF]” the “folding stability dG unfold” value [1] was 4.01 ± 0.11 kcal/mol, the “folding stability dG unfold” value [2] was 4.33 ± 0.07 kcal/mol and the “folding stability dG unfold” value [3] was 2.31 ± 0.076 kcal/mol.
For “SAGGSAGGSAGGAPEKEVTVRVRITVFRDGKPVEEIELEPGQTLTFPPGARVVIEVELLPSAGGSAGGSAGG [r7_141_TrROS_Hall]”, the “folding stability dG unfold” value [1] was 3.39 ± 0.17 kcal/mol, the “folding stability dG unfold” value [2] was 3.51 ± 0.12 kcal/mol and the “folding stability dG unfold” value [3] was 3 ± 0.13 kcal/mol.
In the case of “SAGGMIQIERDKDGYLRITIWVPGDPKEAEEIAENIIELLQDLGFDEVDIDYEPFDGGVMIEITVKVSAGGS [r8_113_TrROS]”, the “folding stability dG unfold” value [1] is reported as 3.29 ± 0.077 kcal/mol, the “folding stability dG unfold” value [2] is reported as 3.49 ± 0.083 kcal/mol and the “folding stability dG unfold” value [3] is reported as 2.9 ± 0.12 kcal/mol.
With “SDKVEIWIPIPDGFWVRIKYDKPGKREITIWMPEDNPEFRKHGSMDQFIKHLARKLGLDPDKVKVDMYPMSA [r9_401_TrROS]” the “folding stability dG unfold” value [1] was 3.69 ± 0.14 kcal/mol, the “folding stability dG unfold” value [2] was 4.11 ± 0.098 kcal/mol and the “folding stability dG unfold” value [3] was 3.13 ± 0.1 kcal/mol.
In the case of “SAGGSASSMPREYKISITITSPKGGTSYTAEATLTVYPDGSVEIEVTIDDSSSLPSSAVKTITIGTSAGGSA [r15_488_JUSTAS]”, the “folding stability dG unfold” value [1] is reported as 3.29 ± 0.11 kcal/mol, the “folding stability dG unfold” value [2] is reported as 3.98 ± 0.1 kcal/mol and the “folding stability dG unfold” value [3] is reported as 1.86 ± 0.14 kcal/mol.
In the case of “SAGGSKIKIKLPDGSTIEIEVKGDTVKIKITVNGKTYTFELKVGETFTITFKDGTTLTIKLPKKKKSAGGSA [r2_57_TrROS_Hall]”, the “folding stability dG unfold” value [1] is reported as 5.12 ± 0.37 kcal/mol, the “folding stability dG unfold” value [2] is reported as 5.33 ± 0.21 kcal/mol and the “folding stability dG unfold” value [3] is reported as 2.45 ± 0.2 kcal/mol.
With “SAGMKIEIEKVEKDENGKYRFKAKVTVFDEKTGEKKEITIEITLPKEELKDEEILKEAVKKAVEELEKKSAG [r5_964_TrROS_Hall]” the “folding stability dG unfold” value [1] was 4.63 ± 0.56 kcal/mol, the “folding stability dG unfold” value [2] was 4.99 ± 0.27 kcal/mol and the “folding stability dG unfold” value [3] was 2.81 ± 0.25 kcal/mol.
For “SAGGSAGGSAKKYKVKIEIEKEKKKYKFEFEVSFENIQEIIDAIPKDYKVKITSIEPLEPKSAGGSAGGSAG [r3_195_TrMRF]”, the “folding stability dG unfold” value [1] was 4.04 ± 0.16 kcal/mol, the “folding stability dG unfold” value [2] was 4.35 ± 0.047 kcal/mol and the “folding stability dG unfold” value [3] was 1.62 ± 0.047 kcal/mol.
For “SAGGSAGGSAGGKILVITAKIEDIPEIIEAAKKLGIDSVIIDIPETKEKIIITKDSVKLISAGGSAGGSAGG [r7_564_TrMRF]”, the “folding stability dG unfold” value [1] was 1.63 ± 0.14 kcal/mol, the “folding stability dG unfold” value [2] was 1.76 ± 0.089 kcal/mol and the “folding stability dG unfold” value [3] was 1.54 ± 0.057 kcal/mol.
For “SAGGSAGGSAGGMRTVTITRVRADGSPVETSTVEVPESVSTVTVTDPADGLTAEVTLSASAGGSAGGSAGGS [r10_970_JUSTAS]”, the “folding stability dG unfold” value [1] was 0.691 ± 0.046 kcal/mol, the “folding stability dG unfold” value [2] was 1.03 ± 0.046 kcal/mol and the “folding stability dG unfold” value [3] was -1.02 ± 0.38 kcal/mol.
In the case of “DDWVTLPVEIWIPVRNPDGKPLTPEQVKETANSIRNELARNHGIDVEVDVKVEPVGPNGYYRINATVTIRPS [r1_231_TrROS]”, the “folding stability dG unfold” value [1] is reported as 2.72 ± 0.14 kcal/mol, the “folding stability dG unfold” value [2] is reported as 2.98 ± 0.055 kcal/mol and the “folding stability dG unfold” value [3] is reported as 2.23 ± 0.1 kcal/mol.
For “SMTLITLTDPVTNVPVEKVEVRKLEDGTYEATVTTKEPSKTTTKTYPLPPDEKITDVLKSLGLKEAEINLSA [r9_492_JUSTAS]”, the “folding stability dG unfold” value [1] was 0.445 ± 0.17 kcal/mol, the “folding stability dG unfold” value [2] was 0.538 ± 0.093 kcal/mol and the “folding stability dG unfold” value [3] was 0.255 ± 0.036 kcal/mol.
In the case of “SAGGSAGGSKETLTIKIKVEVKDENGEKKEVTVTLTIKAETKEEAEALLKELKEKYPNVKVEPSAGGSAGGS [r12_1043_TrROS_Hall]”, the “folding stability dG unfold” value [1] is reported as 2.93 ± 0.23 kcal/mol, the “folding stability dG unfold” value [2] is reported as 2.9 ± 0.11 kcal/mol and the “folding stability dG unfold” value [3] is reported as 2.7 ± 0.38 kcal/mol.
For “SAGGSANPDTPKPVVTTVEETVEVPYSSEEEAEAVVKEIEEKNKGVKAEIKSLSEDGIATIVITKKSAGGSA [r15_387_JUSTAS]”, the “folding stability dG unfold” value [1] was 1.17 ± 0.2 kcal/mol, the “folding stability dG unfold” value [2] was 1.62 ± 0.096 kcal/mol and the “folding stability dG unfold” value [3] was -1.54 ± 0.47 kcal/mol.
With “SAGPSVTITLTLPDGVTVTLTVNEDGTVTLTVTATVKTTTYTVKDGKLTEKTETTETVTLTATFKLPDSAGG [r19_257_TrROS_Hall]” the “folding stability dG unfold” value [1] was 5.11 ± 0.22 kcal/mol, the “folding stability dG unfold” value [2] was 5.21 ± 0.16 kcal/mol and the “folding stability dG unfold” value [3] was 2.95 ± 0.16 kcal/mol.
In the case of “SAGGGDPVGRIRRRPVELTLELEVPEGREEVARALAEALRDLGVEVELTRRPDGRVRLRVRFEVGDFESAGG [r13_702_TrMRF]”, the “folding stability dG unfold” value [1] is reported as 3.36 ± 0.046 kcal/mol, the “folding stability dG unfold” value [2] is reported as 3.82 ± 0.03 kcal/mol and the “folding stability dG unfold” value [3] is reported as 1.21 ± 0.031 kcal/mol.
With “SAGMEITTVTLPDGTKLITITLPVPGGPSITADVPYDPATGKVTLLKITGEDPALEALAKEAVEKLKKESAG [r5_266_JUSTAS]” the “folding stability dG unfold” value [1] was 1.09 ± 0.11 kcal/mol, the “folding stability dG unfold” value [2] was 1.17 ± 0.053 kcal/mol and the “folding stability dG unfold” value [3] was 0.68 ± 0.032 kcal/mol.
For “SAGGKAKVIAKAEFTLPNGLKVTVEIVENEDGSLSIKIKIEPVPAPPPEKKVELSEEEKKKLEEAKKSAGGS [r16_6_TrROS_Hall]”, the “folding stability dG unfold” value [1] was 3.22 ± 0.12 kcal/mol, the “folding stability dG unfold” value [2] was 3.8 ± 0.2 kcal/mol and the “folding stability dG unfold” value [3] was 1.01 ± 0.052 kcal/mol.
With “SAGKVTGYEDGSVKIEATLKVGDKVYKVTATISPDGSVSVSVEPIEEIPPPPPVPIDSSKPGNKALAESSAG [r5_715_TrMRF]” the “folding stability dG unfold” value [1] was 2.48 ± 0.32 kcal/mol, the “folding stability dG unfold” value [2] was 3 ± 0.072 kcal/mol and the “folding stability dG unfold” value [3] was 0.186 ± 0.073 kcal/mol.
In the case of “SAGGSAGGSAAAAPAAATTTTTETRTETRVEPRLEVTITVTADSEEERLAALRLAKELLEAASAGGSAGGSA [r18_308_TrROS_Hall]”, the “folding stability dG unfold” value [1] is reported as 0.693 ± 0.051 kcal/mol, the “folding stability dG unfold” value [2] is reported as 1.08 ± 0.059 kcal/mol and the “folding stability dG unfold” value [3] is reported as -0.921 ± 0.53 kcal/mol.
With “SAGGSYGWFPITVSFKIFVGGKIVWEFEVEIMIRVPIPPVPPIKVPPEARKAMENGDWEKAMKALGSAGGSA [r2_196_TrROS]” the “folding stability dG unfold” value [1] was 3.46 ± 0.53 kcal/mol, the “folding stability dG unfold” value [2] was 4.45 ± 0.19 kcal/mol and the “folding stability dG unfold” value [3] was 1.36 ± 0.095 kcal/mol.
In the case of “EKPEVKIKIELTLNEDGTLTATAYNEETGEIVEVTITVDEDGNVTITVKTKRFKKEEGKIETVEKTITLPKS [r1_45_TrROS_Hall]”, the “folding stability dG unfold” value [1] is reported as 2.84 ± 0.38 kcal/mol, the “folding stability dG unfold” value [2] is reported as 3.47 ± 0.11 kcal/mol and the “folding stability dG unfold” value [3] is reported as 1.06 ± 0.13 kcal/mol.
In the case of “LDIEYDPDNGSFTVSFMVPIGPGHGVFVMVDYTFRFGPNGDIGIEWQISVMPIPPPPPKIDPEDQEKAQNKS [r1_4_TrROS]”, the “folding stability dG unfold” value [1] is reported as 3.67 ± 0.47 kcal/mol, the “folding stability dG unfold” value [2] is reported as 3.99 ± 0.28 kcal/mol and the “folding stability dG unfold” value [3] is reported as 1.95 ± 0.12 kcal/mol.
In the case of “GMSATIVATLPDGSLITVDYRQLPDGSWRATVTIHRPGKAPTTLTFDFSSIEELEAYLREKFPTDITRTEAS [r1_137_JUSTAS]”, the “folding stability dG unfold” value [1] is reported as 5.14 ± 0.11 kcal/mol, the “folding stability dG unfold” value [2] is reported as 5.39 ± 0.12 kcal/mol and the “folding stability dG unfold” value [3] is reported as 2.62 ± 0.067 kcal/mol.
